Results as given in the supplement of paper PMC3334620.
The full ranking holds about 33,000 sequences; the median of “E-score (-0.5 to 0.5)” is about -0.016, and the highest 2% start at about 0.3. This is one part of the list.

The sequences below were run against T1, Yer184c (UniProt P39961) (assay: PBM E-score (8-mer binding enrichment) (E-score (-0.5 to 0.5)); higher = stronger / more preferred TF binding). Conditions: protein concentration: 100 nM; construct: GST-full length.
T1 sequence: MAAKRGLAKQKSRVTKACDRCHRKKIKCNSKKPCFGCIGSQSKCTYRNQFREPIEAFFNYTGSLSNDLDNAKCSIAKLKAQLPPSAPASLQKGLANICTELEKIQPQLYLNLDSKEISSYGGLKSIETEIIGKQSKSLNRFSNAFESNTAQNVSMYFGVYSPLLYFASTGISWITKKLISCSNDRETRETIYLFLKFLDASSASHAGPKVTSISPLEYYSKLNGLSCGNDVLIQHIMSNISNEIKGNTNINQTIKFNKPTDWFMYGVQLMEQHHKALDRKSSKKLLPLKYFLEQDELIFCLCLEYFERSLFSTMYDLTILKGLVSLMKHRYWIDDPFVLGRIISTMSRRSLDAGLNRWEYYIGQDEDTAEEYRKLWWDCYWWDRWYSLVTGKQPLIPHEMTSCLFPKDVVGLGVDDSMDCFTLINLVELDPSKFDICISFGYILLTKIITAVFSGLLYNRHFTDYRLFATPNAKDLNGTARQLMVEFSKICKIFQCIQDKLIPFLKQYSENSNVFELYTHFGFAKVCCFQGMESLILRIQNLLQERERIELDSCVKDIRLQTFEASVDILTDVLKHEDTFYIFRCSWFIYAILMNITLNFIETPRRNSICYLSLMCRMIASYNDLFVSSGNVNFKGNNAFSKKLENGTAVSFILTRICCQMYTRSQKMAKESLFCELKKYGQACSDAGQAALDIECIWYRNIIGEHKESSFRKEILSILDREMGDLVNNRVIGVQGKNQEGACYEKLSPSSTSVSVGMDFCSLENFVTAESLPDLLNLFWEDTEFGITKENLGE
Protocol: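 Universal 'all 10-mer' protein binding microarrays (Agilent AMADID 015681) probed with GST-tagged S. cerevisiae TFs (full-length or DBD) made by in vitro transcription/translation (PURExpress), about 100-200 nM. Bound TF was detected with fluorescent anti-GST. Each ungapped 8-mer (which stands for itself and its reverse complement) is scored by the PBM enrichment score (E-score), a modified Wilcoxon-Mann-Whitney statistic from -0.5 to +0.5, computed with the Universal PBM Analysis Suite. Scale: above 0.35 generally sequence-specific binding.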

Row | Sequence | PBM E-score
1 | AACATGGA | -0.00809
2 | GACCTGGC | -0.2
3 | GGGATAGA | -0.186
4 | GATGTGCC | 0.045
5 | AAGAAGAC | -0.025
6 | CAGAATTC | 0.149
7 | CCCGATCA | 0.0261
8 | AACCCACA | 0.0266
9 | GGACCGAC | 0.12
10 | CACAGTGG | -0.144
11 | AGATAGCC | 0.019
12 | ATCTTCTG | -0.00807
13 | CGCAGACC | -0.105
14 | CCCGACGC | 0.00987
15 | AGTAACGG | 0.101
16 | CGGCCCTC | -0.112
17 | GGGATCAC | -0.226
18 | CCGATAGC | -0.0418
19 | AGGAGTAT | -0.271
20 | CAAGGGGC | -0.189
21 | AAGACGCG | -0.0332
22 | TAATGACA | 0.0861
23 | ACATCCGA | 0.346
24 | ACACAATG | 0.101

Given comma-delimited: entries from further up
Row,Sequence,PBM E-score
2,GACCTGGC,-0.2
3,GGGATAGA,-0.186
4,GATGTGCC,0.045
5,AAGAAGAC,-0.025
6,CAGAATTC,0.149
7,CCCGATCA,0.0261
8,AACCCACA,0.0266
9,GGACCGAC,0.12
10,CACAGTGG,-0.144
11,AGATAGCC,0.019
12,ATCTTCTG,-0.00807
13,CGCAGACC,-0.105
14,CCCGACGC,0.00987
15,AGTAACGG,0.101
16,CGGCCCTC,-0.112
17,GGGATCAC,-0.226
18,CCGATAGC,-0.0418
19,AGGAGTAT,-0.271
20,CAAGGGGC,-0.189
21,AAGACGCG,-0.0332
22,TAATGACA,0.0861
23,ACATCCGA,0.346
24,ACACAATG,0.101

The results go on:

Row | Sequence | PBM E-score
25 | CGGTTCTC | 0.173
26 | CCGCTACG | -0.0976
27 | GAGGCACC | -0.223
28 | ACCTGTTG | -0.138
29 | ACGACTTC | 0.0208
30 | ATATTCAC | -0.00695
31 | GGCGTACA | -0.102
32 | CCACGTCC | -0.396
33 | CACTTATC | -0.0553
34 | CTGGGCAA | 0.00899
35 | ACTGGTAG | -0.0441
36 | CAATTTAA | 0.239
37 | AAAATAGC | -0.143
38 | ACTTTTTC | -0.0519
39 | CAGCCTCA | -0.182
40 | CGTGTTGC | 6e-05
41 | CGATCGCG | 0.136
42 | AGTAACTG | -0.0845
43 | ACGGACAA | 0.27
44 | AGCAAACT | 0.103
45 | AACTAATT | 0.182
46 | CGTCGTTA | -0.0143
47 | GCTTTCTA | 0.192
48 | CACACAAG | 0.0649

Nos. 11 to 12 of the list above:
Row | Sequence | PBM E-score
11 | AGATAGCC | 0.019
12 | ATCTTCTG | -0.00807

(listing goes on)

Row | Sequence | PBM E-score
49 | GGCGACCA | -0.182
50 | GGCTGTTA | 0.156
51 | GTAGAACA | -0.166
52 | AAAACTGG | -0.0222
53 | ACCTCGCC | -0.206
54 | ACAGCACT | 0.087
55 | TATACATA | 0.113
56 | CGAAGCAC | 0.0194
57 | CAATGTTA | 0.0647
58 | CGGGACAC | -0.026
59 | CCATCTGA | -0.0258
60 | CAAGCAAA | -0.0314
61 | TTCAAAAA | 0.228
62 | TAAGCTTA | 0.0409
63 | CACACATC | -0.212
64 | GTCGGACA | 0.193
65 | TGGAGACA | -0.0762
66 | TCAGTTAA | 0.0228
67 | ACTGCATG | -0.0513
68 | ACAGCATG | -0.108
69 | AATAGCCT | -0.163
70 | GCTTTAGA | -0.075
71 | AGGATATA | 0.124
72 | CCAGTGTA | -0.121

Row | Sequence | PBM E-score
73 | AACTTCCT | 0.136
74 | CAGTAGAA | -0.069
75 | GCGACGCC | -0.0662
76 | CGGGTGAC | -0.0044
77 | AGAATATG | 0.11
78 | GCCGTCAC | 0.13
79 | CTATTCTA | 0.015
80 | CACAAGGA | -0.0121
81 | ACTGGGGG | -0.242
82 | GTTCGAGA | -0.0825
83 | ATAAAGCC | -0.0239
84 | AATTGCGG | 0.13
85 | AACGCCGC | 0.116
86 | CCCTATAG | -0.146
87 | GTAGTAAC | 0.0433
88 | CGTTTACC | 0.0864
89 | GATCCAAC | 0.0324
90 | CTTACAAC | 0.149
91 | CTGAGCAG | -0.075
92 | CAAGAATG | 0.103
93 | GATAACAC | 0.0102
94 | AGGTATCC | 0.125
